Results deposited as PubChem BioAssay AID743121 (NCATS, 2013).
The deposit covers about 26,000 reagents; this is a random part of them. 167 of all reagents (0.63%) count as active. 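Calls are per gene from RSA p-values that are not deposited; an individual active-marked siRNA can sensitise only weakly.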 Entries without a mark were called inactive. The numbers tell different reagents against one gene apart. Further read-outs or replicates are left out here. Reagent sequences are not shown.

- Test: 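Partners whose loss is lethal together with topoisomerase I blockade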 (primary screen)
- Cell system: MDA-MB-231 cells, a human breast cancer line
- Reagent: single siRNA against human genes, 20 nM siRNA (0.8 pmol per well)
- Duration: 120 h (drug added 48 h after transfection, read 72 h later)
- Conditions: camptothecin 20 nM (about EC30) for 72 h; vehicle 0.1% DMSO in parallel plates
- Read-out: 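CellTiter-Glo ATP signal, scaled to control siRNA as percent viability; sensitisation given as log2 of untreated divided by camptothecin-treated viability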
- Reading the numbers: log2 vehicle/camptothecin viability: higher = stronger sensitisation to camptothecin; viability with camptothecin: higher = more viable cells
- Active means: 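Each gene scored by redundant siRNA activity (RSA) over its individual siRNA ratios; a gene is called active at p < 0.001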

Target gene	reagent no.	log2 vehicle/camptothecin viability	viability with camptothecin (% of control)
SNCA	1	-0.0633	102
SNCA	2	0.693	40.7
SNCA	3	-0.111	78.6
SNCA	4	0.166	83.3
TULP4	1	-0.125	67
TULP4	2	-0.47	69
TULP4	3	-0.0843	93
TULP4	4	0.535	47.5
TP53I11	1	-0.235	65.2
TP53I11	2	-0.0252	83.9
TP53I11	3	-0.0268	52.7
TP53I11	4	-0.229	89.4
AK3	1	-0.525	84.8
AK3	2	0.392	12.8
AK3	3	0.798	49
AK3	4	-0.0482	89.1
GTF2H2	1	-0.116	107
GTF2H2	2	-0.363	45.3
GTF2H2	3	-0.253	84.1
PTBP3	1	-0.00819	64.5
PTBP3	2	-0.232	105
PTBP3	3	-0.0165	89.5
PTBP3	4	-0.136	99.4
RAC3	1	-0.654	29.3
RAC3	2	-0.221	55.2
RAC3	3	-0.25	52.2
RAC3	4	-0.439	96.2
CXCL13	1	-0.446	111
CXCL13	2	0.172	101
CXCL13	3	-0.227	51
SELE	1	-0.206	68.7
SELE	2	-0.604	64
SELE	3	0.0496	48.6
SELE	4	0.0489	101
BAGE5	1	-0.0473	85.3
BAGE5	2	-0.339	61.2
MPZL1	1	0.285	73.6
MPZL1	2	-0.0776	95.6
MPZL1	3	-0.214	50.4
MPZL1	4	-0.114	92.7
BTNL2	1	0.339	54
BTNL2	2	-0.11	75.3
BTNL2	3	-0.311	61.4
CD40LG	1	-0.497	106
CD40LG	2	-0.2	76.7
CD40LG	3	-0.233	109
CD40LG	4	0.18	60
HSD17B12	1	-0.237	81.1
HSD17B12	2	0.227	90
HSD17B12	3	-0.13	83.1
HSD17B12	4	0.0036	90
NEK8	1	-0.366	67.4
NEK8	2	-0.426	89.2
NEK8	3	-0.42	119
NEK8	4	-0.195	39.3
EPAS1	1	0.022	79.6
EPAS1	2	-0.568	32
EPAS1	3	-0.249	68.5
EPAS1	4	0.349	48.6
IFT57	1	0.259	63.6
IFT57	2	-0.554	102
IFT57	3	-0.0872	95.6
IFT57	4	-0.0897	76.6
TMPRSS11F	1	-0.156	73.3
TMPRSS11F	2	0.119	64.3
RAB35	1	-0.378	71.8
RAB35	2	-0.411	55.1
RAB35	3	-0.121	93.7

A few values from the entries so far.
Result of AK3 #2 in “log2 vehicle/camptothecin viability”: 0.392
For “log2 vehicle/camptothecin viability”, TULP4 #3 is entered as -0.0843
RAB35 #3, viability with camptothecin (% of control) → 93.7
RAC3 #2, viability with camptothecin (% of control) → 55.2
NEK8 #2, log2 vehicle/camptothecin viability → -0.426
